Our source for the conjugation yield and step yield values is patent US12433952B2 (ZYMEWORKS BC INC., priority 2022, dated 2025).

A short description of the data set: general procedure: solution-phase peptide synthesis; HATU. The following applies: for conjugation yield: conjugation step.

The substance “tert-butyl (2-((2-(((S)-1-((2-(((S)-4-ethyl-8-fluoro-4-hydroxy-3,14-dioxo-3,4,12,14-tetrahydro-1H-pyrano[3′,4′:6,7]indolizino[1,2-b]quinolin-9-yl)amino)-2-oxoethyl)amino)-1-oxo-3-phenylpropan-2-yl)amino)-2-oxoethyl)amino)-2-oxoethyl)carbamate” gave a conjugation yield of 17% yield. On to “2-((2-(((S)-1-((2-(((S)-4-ethyl-8-fluoro-4-hydroxy-3,14-dioxo-3,4,12,14-tetrahydro-1H-pyrano[3′,4′:6,7]indolizino[1,2-b]quinolin-9-yl)amino)-2-oxoethyl)amino)-1-oxo-3-phenylpropan-2-yl)amino)-2-oxoethyl)amino)-2-oxoethan-1-aminium”, for which the step yield (coupling step) is on record as 88% yield. Regarding “(S)-16-amino-10-benzyl-6,9,12,15-tetraoxo-3-oxa-5,8,11,14-tetraazahexadecyl (((S)-4-ethyl-8-fluoro-4-hydroxy-9-methyl-3,14-dioxo-3,4,12,14-tetrahydro-1H-pyrano[3′,4′:6,7]indolizino[1,2-b]quinolin-11-yl)methyl)carbamate”, the conjugation yield (TFA salt) is listed as 39% yield.

Turning to “tert-butyl (((S)-9-(2-((S)-2-(2-(2-aminoacetamido)acetamido)-3-phenylpropanamido)acetamido)-4-ethyl-8-fluoro-4-hydroxy-3,14-dioxo-3,4,12,14-tetrahydro-1H-pyrano[3′,4′:6,7]indolizino[1,2-b]quinolin-11-yl)methyl)carbamate”, the step yield (coupling step, TFA salt) amounted to 64% yield. For the setting “late stage modification step”, “(9H-fluoren-9-yl)methyl ((7S)-1-((3-azabicyclo[3.1.1]heptan-6-yl)oxy)-7-benzyl-3,6,9,12-tetraoxo-2,5,8,11-tetraazatridecan-13-yl)carbamate” came in with a step yield of 46% yield.

For the substance “(9H-fluoren-9-yl)methyl (S)-(9-benzyl-1-(3-fluoroazetidin-3-yl)-5,8,11,14-tetraoxo-2-oxa-4,7,10,13-tetraazapentadecan-15-yl)carbamate”, the step yield (late stage modification step) is reported as 54% yield.
